PubChem BioAssay AID210 (DTP/NCI, 2004)
The list shows only some results of the screen, not a fair sample: it gathers some chemical classes. Not every dose and run of a compound is shown. T/C is the treated group as % of the vehicle group. Where survival is the endpoint, this PubChem deposit counts one and a half times the control or more as active, and values a quarter to a half above the control carry no call in these data; other NCI protocols may use other cut-offs. Schedules are NCI's codes, read here as Q, the interval in days (D) or hours (H), X, the number of doses. Some entries show no survivor count and are marked so; the dose need not have been tolerated.

Tested on: CD2F1 mice, ip Colon 26 adenocarcinoma, median survival T/C
Assay: NCI In Vivo Anticancer Drug Screen. Data for tumor model Colon 26 Adenocarcinoma (intraperitoneal) in CD2F1 (CDF1) mice
Settings: T/C endpoint: median survival time, higher T/C = longer survival
Method: The antitumor activity of compounds was measured in mice bearing transplantable tumors. Survival or tumor size were measured and the results are expressed as the measurement made in the treated group (T) divided by the measurement made in the vehicle treated control group (C). The tumor model used in this assay is Colon 26 Adenocarcinoma (intraperitoneal) in CD2F1 (CDF1) mice

CC(=O)O[C@@H]1[C@@H](O)[C@H]2O[C@@H]3C=C(C)C(=O)[C@@H](O)[C@]3(CO)[C@]1(C)[C@]21CO1
T/C (dose: 0.4 mg/kg/injection, schedule: Q04DX003 (ip), vehicle: saline): 97 % of control [survivor count not shown] | T/C (dose: 0.8 mg/kg/injection, schedule: Q04DX003 (ip), vehicle: saline): 105 % of control [survivor count not shown] | T/C (dose: 1.6 mg/kg/injection, schedule: Q04DX003 (ip), vehicle: saline): 120 % of control [survivor count not shown] | T/C (dose: 3.2 mg/kg/injection, schedule: Q04DX003 (ip), vehicle: saline): 120 % of control [survivor count not shown]

CC(=O)OC[C@]12C[C@H](OC(=O)CC(C)C)C(C)=C[C@H]1OC1[C@H](O)[C@@H](OC(C)=O)[C@@]2(C)[C@@]12CO2
T/C (dose: 1.3 mg/kg/injection, schedule: Q04DX003 (ip), vehicle: other): 100 % of control [survivor count not shown] | T/C (dose: 2.16 mg/kg/injection, schedule: Q04DX003 (ip), vehicle: other): 102 % of control [survivor count not shown] | T/C (dose: 3.6 mg/kg/injection, schedule: Q04DX003 (ip), vehicle: other): 101 % of control [survivor count not shown] | T/C (dose: 648.0 micrograms/kg/injection, schedule: Q04DX003 (sc), vehicle: saline + alcohol): 100 % of control [survivor count not shown] | T/C (dose: 1080.0 micrograms/kg/injection, schedule: Q04DX003 (sc), vehicle: saline + alcohol): 100 % of control [survivor count not shown] | T/C (dose: 1800.0 micrograms/kg/injection, schedule: Q04DX003 (sc), vehicle: saline + alcohol): 102 % of control [survivor count not shown]

C[C@@H](O)[C@H]1/C=C/C=C\C(=O)O[C@@H]2C[C@H]3O[C@@H]4[C@@H]5OC5(C)CCC4(COC(=O)[C@H]4O[C@]4(C)[C@@H](O)CO1)[C@]2(C)[C@]31CO1 (stereo partly drawn)
T/C (dose: 1.94 mg/kg/injection, schedule: Q04DX003 (sc), vehicle: other): 102 % of control [survivor count not shown] | T/C (dose: 3.24 mg/kg/injection, schedule: Q04DX003 (ip), vehicle: other): 123 % of control [survivor count not shown] | T/C (dose: 3.24 mg/kg/injection, schedule: Q04DX003 (sc), vehicle: other): 96 % of control [survivor count not shown] | T/C (dose: 5.4 mg/kg/injection, schedule: Q04DX003 (ip), vehicle: other): 123 % of control [survivor count not shown] | T/C (dose: 5.4 mg/kg/injection, schedule: Q04DX003 (sc), vehicle: other): 98 % of control [survivor count not shown] | T/C (dose: 9.0 mg/kg/injection, schedule: Q04DX003 (ip), vehicle: other): 118 % of control [survivor count not shown]

CC1=CC2OC3CC4OC(=O)/C=C/C=C/C(C(C)O)OCC(O)C(C)CC(=O)OCC2(CC1O)C4(C)C31CO1 (stereo not drawn)
T/C (dose: 648.0 micrograms/kg/injection, schedule: Q04DX003 (ip), vehicle: other): 106 % of control [survivor count not shown] | T/C (dose: 1080.0 micrograms/kg/injection, schedule: Q04DX003 (ip), vehicle: other): 95 % of control [survivor count not shown]

CC(=O)OCC12CC(O)C(C)=CC1OC1C(O)C(OC(C)=O)C2(C)C12CO2 (stereo not drawn)
T/C (dose: 0.31 mg/kg/injection, schedule: Q04DX003 (ip), vehicle: saline): 110 % of control [survivor count not shown] | T/C (dose: 0.62 mg/kg/injection, schedule: Q04DX003 (ip), vehicle: saline): 109 % of control [survivor count not shown] | T/C (dose: 1.25 mg/kg/injection, schedule: Q04DX003 (ip), vehicle: saline): 112 % of control [survivor count not shown] | T/C (dose: 2.5 mg/kg/injection, schedule: Q04DX003 (ip), vehicle: saline): 117 % of control [survivor count not shown] | T/C (dose: 5.0 mg/kg/injection, schedule: Q04DX003 (ip), vehicle: saline): 119 % of control [survivor count not shown] | T/C (dose: 10.0 mg/kg/injection, schedule: Q04DX003 (ip), vehicle: saline): 133 % of control [survivor count not shown]

CC(=O)OCC12CCC(C)=CC1OC1C(O)C(OC(C)=O)C2(C)C12CO2 (stereo not drawn)
T/C (dose: 0.25 mg/kg/injection, schedule: Q04DX003 (ip), vehicle: saline): 115 % of control [survivor count not shown] | T/C (dose: 0.5 mg/kg/injection, schedule: Q04DX003 (ip), vehicle: saline): 106 % of control [survivor count not shown] | T/C (dose: 1.0 mg/kg/injection, schedule: Q04DX003 (ip), vehicle: saline): 99 % of control [survivor count not shown] | T/C (dose: 2.0 mg/kg/injection, schedule: Q04DX003 (ip), vehicle: saline): 104 % of control [survivor count not shown] | T/C (dose: 2.59 mg/kg/injection, schedule: Q04DX003 (sc), vehicle: saline + alcohol): 105 % of control [survivor count not shown] | T/C (dose: 4.0 mg/kg/injection, schedule: Q04DX003 (ip), vehicle: saline): 135 % of control [survivor count not shown] | T/C (dose: 4.32 mg/kg/injection, schedule: Q04DX003 (ip), vehicle: other): 100 % of control [survivor count not shown] | T/C (dose: 4.32 mg/kg/injection, schedule: Q04DX003 (sc), vehicle: saline + alcohol): 100 % of control [survivor count not shown] | T/C (dose: 7.2 mg/kg/injection, schedule: Q04DX003 (ip), vehicle: other): 95 % of control [survivor count not shown]
